Experimental data published in paper PMC5105168.
No constants are given. Whether binding was seen depends on the method and setting. Binding seen in cells or lysates may run through a third protein. Some entries that bind do so weakly or less than the wild type.

Protein sequences, listed by entry. Tags and fused reporters are not part of them. Lines headed by an entry give the natural chain unless they say otherwise; changes in a name come on top. Chains listed by the source or under a name are the forms on record and can include a tag or linker. Residues count along the entry.
UniProt O43823: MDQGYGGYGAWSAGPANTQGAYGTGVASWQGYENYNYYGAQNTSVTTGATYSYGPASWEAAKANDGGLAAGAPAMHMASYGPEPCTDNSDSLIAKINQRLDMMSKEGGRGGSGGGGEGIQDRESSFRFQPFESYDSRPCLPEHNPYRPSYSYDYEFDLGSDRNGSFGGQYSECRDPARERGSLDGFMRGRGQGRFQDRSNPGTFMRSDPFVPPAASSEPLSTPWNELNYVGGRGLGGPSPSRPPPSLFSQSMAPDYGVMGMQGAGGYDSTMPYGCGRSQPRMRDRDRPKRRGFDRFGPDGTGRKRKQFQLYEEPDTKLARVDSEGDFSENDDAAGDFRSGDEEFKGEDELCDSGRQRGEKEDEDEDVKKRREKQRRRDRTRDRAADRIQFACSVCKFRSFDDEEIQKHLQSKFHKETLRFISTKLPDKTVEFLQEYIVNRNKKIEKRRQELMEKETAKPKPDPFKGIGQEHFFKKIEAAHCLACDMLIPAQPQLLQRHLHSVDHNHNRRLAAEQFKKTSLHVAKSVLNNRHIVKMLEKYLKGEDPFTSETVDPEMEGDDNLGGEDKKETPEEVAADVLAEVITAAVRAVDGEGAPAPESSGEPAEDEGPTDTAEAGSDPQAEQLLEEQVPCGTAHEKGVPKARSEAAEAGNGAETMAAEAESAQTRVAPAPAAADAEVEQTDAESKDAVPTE
FLAG-HA-tagged AKAP95 (1–340): residues 1-340 of O43823
FLAG-HA-tagged AKAP95 (1–210): residues 1-210 of O43823

Key:
[1] = target: MBP fused to AKAP95 wild type (human) (UniProt O43823); assay: pull-down; lysates of 293 cells expressing MBP or MBP fusions of AKAP95, precipitated by amylose beads, immunoblot for endogenous hnRNPs
[2] = target: FLAG-HA-tagged AKAP95 (1–210) (human) (UniProt O43823); assay: co-IP; FH-tagged AKAP95 constructs transfected into 293T cells, anti-FLAG M2 agarose, cell lysates in BC300, 0.1% NP40, immunoblot for endogenous hnRNPs
[3] = target: FLAG-HA-tagged AKAP95 (1–340) (human) (UniProt O43823); assay: as above

Measured: binding

B1: hnRNP M (endogenous) (protein, UniProt P52272 1-730)
chain: MAAGVEAAAEVAATEIKMEEESGAPGVPSGNGAPGPKGEGERPAQNEKRKEKNIKRGGNRFEPYANPTKRYRAFITNIPFDVKWQSLKDLVKEKVGEVTYVELLMDAEGKSRGCAVVEFKMEESMKKAAEVLNKHSLSGRPLKVKEDPDGEHARRAMQKVMATTGGMGMGPGGPGMITIPPSILNNPNIPNEIIHALQAGRLGSTVFVANLDYKVGWKKLKEVFSMAGVVVRADILEDKDGKSRGIGTVTFEQSIEAVQAISMFNGQLLFDRPMHVKMDERALPKGDFFPPERPQQLPHGLGGIGMGLGPGGQPIDANHLNKGIGMGNIGPAGMGMEGIGFGINKMGGMEGPFGGGMENMGRFGSGMNMGRINEILSNALKRGEIIAKQGGGGGGGSVPGIERMGPGIDRLGGAGMERMGAGLGHGMDRVGSEIERMGLVMDRMGSVERMGSGIERMGPLGLDHMASSIERMGQTMERIGSGVERMGAGMGFGLERMAAPIDRVGQTIERMGSGVERMGPAIERMGLSMERMVPAGMGAGLERMGPVMDRMATGLERMGANNLERMGLERMGANSLERMGLERMGANSLERMGPAMGPALGAGIERMGLAMGGGGGASFDRAIEMERGNFGGSFAGSFGGAGGHAPGVARKACQIFVRNLPFDFTWKMLKDKFNECGHVLYADIKMENGKSKGCGVVKFESPEVAERACRMMNGMKLSGREIDVRIDRNA
binds: all assays above
